In US20170281650A1 (priority 2014, published 2017):

What was measured:
[1] = Food intake, body and organ weight in hamster hyperlipidemia model; format: in vivo, Golden Syrian hamsters; settings: 6 weeks, mean ± SD
Experimental: (§1) Six different experimental diets were prepared by mixing the ingredients according to Table 1 and blending these mixtures with a gelatin solution (20 g/L) in a ratio of 200 g composition per liter of solution. Once the gelatin had set, the product were cut into pieces of approximately 10 g cubes and stored frozen at −80° C. until use.
46 male Golden Syrian hamsters (n=46; body weights=110-120 g) were housed in wire-bottomed cages at 23° C. in an animal room with 12-hour light-dark cycle (one per cage). All hamsters were maintained on a standard cereal based diet for two weeks.
(§2) After this acclimation period the hamsters were randomly divided into six test groups and fed one of the experimental diets for another six weeks.

Golden Syrian hamsters = assay: Analysis of liver cholesterol and dihydrocholesterol in hamster hyperlipidemia model; format: in vivo; settings: 6 weeks
Experimental: as §1, §2
Cholesterol content in organs was determined by a standard method. Cholesterol in the tissue sample was calculated according to the amount of internal standard 5α-cholestanol added.

| Compound | Daily Food Intake ([1]; 0.2% in high cholesterol diet) [g/hamster] | Daily Food Intake ([1]; 0.3% in high cholesterol diet) [g/hamster] | DHC accumulated in the liver (Golden Syrian hamsters; 0.2% β-sitosterol in high cholesterol diet (SA)) [mg/g] | DHC accumulated in the liver (Golden Syrian hamsters; 0.3% β-sitosterol in high cholesterol diet (SB)) [mg/g] |
| --- | --- | --- | --- | --- |
| CC[C@H](CC[C@@H](C)[C@H]1CC[C@H]2[C@@H]3CC=C4C[C@@H](O)CC[C@]4(C)[C@H]3CC[C@]12C)C(C)C [β-sitosterol, reference compound] | 10.71 ± 1.20 | 10.56 ± 0.79 | 0.2 | 0.2 |
| CC(C)CCC[C@@H](C)[C@H]1CC[C@H]2[C@@H]3CC[C@H]4C[C@@H](O)CC[C@]4(C)[C@H]3CC[C@]12C [DHC, dihydrocholesterol] | 9.79 ± 0.67 | 10.30 ± 1.02 |  |  |
